Measured values: PubChem BioAssay AID1259354 (Paczesny and Yang Labs, IUPUI and University of Michigan, 2018)
Several values for one entry are separate records, joined by “and”; a condition that tells them apart may be missing. Equal values may be shown once. In all, about 78,000 compounds went through this assay and about 1,800 (2.3%) were called active. The inconclusive results got no clear call from the source; some entries with a clear call stand among them for comparison. Cut-off read from the data, not from the text of the source: active = inhibition above about 30%; inconclusive = mostly about 10% to 28%; inactive = weaker than that. A structure can be active in one record and inactive in another.

The chains behind the UniProt entries cited, without tags or fusion partners. Where a name states a change or a piece, a line headed by the entry shows the natural chain unless it says otherwise.
UniProt Q01638: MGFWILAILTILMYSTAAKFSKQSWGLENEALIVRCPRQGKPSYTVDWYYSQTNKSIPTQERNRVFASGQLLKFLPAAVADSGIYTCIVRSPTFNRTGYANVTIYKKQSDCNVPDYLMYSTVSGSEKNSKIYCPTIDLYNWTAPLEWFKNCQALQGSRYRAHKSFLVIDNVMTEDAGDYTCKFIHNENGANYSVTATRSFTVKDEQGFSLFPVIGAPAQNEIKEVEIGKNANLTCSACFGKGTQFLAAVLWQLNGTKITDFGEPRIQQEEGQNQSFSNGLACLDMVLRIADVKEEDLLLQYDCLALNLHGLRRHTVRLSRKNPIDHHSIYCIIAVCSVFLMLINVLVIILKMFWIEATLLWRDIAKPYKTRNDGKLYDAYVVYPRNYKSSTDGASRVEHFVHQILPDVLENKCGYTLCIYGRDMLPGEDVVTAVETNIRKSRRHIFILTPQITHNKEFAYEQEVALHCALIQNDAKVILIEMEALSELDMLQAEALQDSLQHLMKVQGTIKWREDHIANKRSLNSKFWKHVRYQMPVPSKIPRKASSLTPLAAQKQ

What follows are molecules tested against Interleukin-1 receptor-like 1 (Homo sapiens) (UniProt Q01638) (assay: blocks human ST2 binding to IL-33, primary screen, biochemical, AlphaLISA (AID 1259354)). Conditions: AlphaLISA ST2-Fc/biotin-IL-33 interaction, 1 h; at 17 µM, hits give high values.
For CCc1ncc(C(=O)N(CC)Cc2nc(-c3cccc(C)c3)no2)cn1, the inhibition was inconclusive: 14%. O=C(C1CC1)N1CCC(Oc2cccc(C(=O)N3C[C@@H]4CC[C@H]3C4)c2)CC1 was tested, and the inhibition was inconclusive: 13%. For CN(C)C1N(C(=O)c2cccc(Br)c2)N=C2c3ccccc3S(=O)(=O)N21 (stereo not drawn), the inhibition was inconclusive: 19%. In the case of COC(=O)C1CCCCN1Cc1ccc2c(c1)CN(C(=O)c1ccc3[nH]ccc3c1)CCO2 (stereo not drawn), the inhibition is reported as “inactive”. With N#Cc1cc([N+](=O)[O-])cc(Br)c1N the inhibition was inconclusive: 24%. With O=C(O)c1ccc(C(=O)c2ccc([N+](=O)[O-])cc2)cc1 the inhibition was “inactive”. For Cc1ccc(N=C/C=C/C=C/Nc2ccc(C)cc2)cc1, the inhibition was inconclusive: 10%. COc1ccc(-c2noc([C@@H]3C[C@@H](O)CN3Cc3ccc(OC)c4ccccc34)n2)cc1 was tested, and the inhibition was inconclusive: 14%. For CCc1[nH]ncc1C(=O)N1C[C@H]2CC=C(C)C[C@H]2C1, the inhibition was “inactive”. In the case of CS(=O)(=O)N(CC(=O)O)c1ccc(Cl)c(Cl)c1, the inhibition is reported as “inactive”. In the case of COc1ccccc1OCCCCN1CCN(Cc2ccccc2)CC1, the inhibition is reported as inconclusive: 16%. In the case of O=C(COc1ccccc1)N[C@H]1CO[C@H]2[C@@H]1OC[C@@H]2n1nnnc1Oc1ccc(-n2ccnc2)cc1, the inhibition is reported as inconclusive: 12%. With Cc1ccc(Oc2ncccc2CNC(=O)c2scc3c2OCCO3)cn1 the inhibition was inconclusive: 17%. With CCOC(=O)Nc1ccc(S(=O)(=O)Nc2nccc(C)n2)cc1 the inhibition was inconclusive: 16%. With COc1ccc(OC)c(C2C(C(=O)Nc3ccc(C)cn3)=C(C)NC3=C2C(=O)CC(C)(C)C3)c1 (stereo not drawn) the inhibition was “inactive”. With COC(=O)C1=C(C)OC(N)=C(C#N)C1c1ccccc1OC(=O)c1ccc(Cl)cc1 (stereo not drawn) the inhibition was inconclusive: 24%. In the case of CCOc1ccc(C(=O)Nc2ccccc2C(C)C)cc1[N+](=O)[O-], the inhibition is reported as “inactive”. CC1=CC[C@@H]2CN(Cc3ccc(CN(C)S(C)(=O)=O)o3)C[C@@H]2C1 was tested, and the inhibition was inconclusive: 15%. In the case of O=c1oc(-c2ccccc2Cl)nc2sc3c(c12)CCC3, the inhibition is reported as active: 45%. COc1ccc(C(=O)N2CCN=C2SCc2cccnc2)cc1 was tested, and the inhibition was “inactive”. With COc1cc(O)c2c(c1)OC(c1ccc(O)cc1)CC2=O (stereo not drawn) the inhibition was inconclusive: 12%. With Cc1c(Cl)c([N+](=O)[O-])nn1CCCC(=O)Nc1sc2c(c1C#N)CCC(C)C2 (stereo not drawn) the inhibition was inconclusive: 14% and inconclusive: 13%. With COc1ccc(CC(=O)Nc2ccccc2[N+](=O)[O-])cc1OC the inhibition was “inactive”. With Cc1c(O)ccc2c(=O)c(-c3nc4ccccc4s3)c(C(=O)O)oc12 the inhibition was inconclusive: 13%. COc1ccc(OC)c(-c2cc(Cl)c3c(c2)CC(CNC(=O)c2c(F)ccc(F)c2F)O3)c1 (stereo not drawn) was tested, and the inhibition was inconclusive: 17%. With CCn1c(C2CCCN(Cc3cccn3-c3cccnc3)C2)nn(C)c1=O (stereo not drawn) the inhibition was inconclusive: 20%. With Cc1[nH]cnc1C(=O)N1CCC2(CC1)C(=O)Nc1ccccc12 the inhibition was “inactive”. O=C(Nc1nc2ccc(F)cc2s1)c1ccc(S(=O)(=O)N2CCc3ccccc3C2)cc1 was tested, and the inhibition was “inactive”. With N#CC1(C#N)C2CCCCC23OC(=N)C1(C#N)C(c1ccc(F)cc1)O3 (stereo not drawn) the inhibition was inconclusive: 22%. With CC1=C(C(=O)N(C)Cc2n[nH]c3c2CCCCC3)C(C)NC(=O)N1 (stereo not drawn) the inhibition was inconclusive: 23%. For CC(NC(=O)c1ccccc1NC(=O)c1ccccc1)C(=O)NCc1ccco1 (stereo not drawn), the inhibition was inconclusive: 10%. With CN1CCC2(CCN(C(=O)CCN3CCCCCCC3)CC2)C1 the inhibition was “inactive”. In the case of COc1ccccc1-n1c(SCC(=O)Nc2cccc(F)c2)nc2c(c1=O)SCC2, the inhibition is reported as inconclusive: 11%. For N#Cc1cccc(NC(=O)N[C@H]2CO[C@H]3[C@@H]2OC[C@@H]3n2nnnc2Oc2ccc(-n3cncn3)cc2)c1, the inhibition was inconclusive: 17%. For CCOC(=O)C1(CCOC)CCCN(Cc2cc(Cl)ccc2O)C1 (stereo not drawn), the inhibition was inconclusive: 19%. In the case of O=C1CC2(CCN(C(=O)CCc3ccc(F)cc3F)CC2)CN1, the inhibition is reported as inconclusive: 22%. With CCCC(NC(=O)CC12CC3CC(CC(C3)C1)C2)c1nccn1C (stereo not drawn) the inhibition was inconclusive: 13%. CC(=O)Nc1nc2cc3sc(NC(C)=O)nc3cc2s1 was tested, and the inhibition was inconclusive: 17%. In the case of CS(=O)CCC(C(=O)O)N1C(=O)c2ccccc2C1=O (stereo not drawn), the inhibition is reported as active: 38%. In the case of Cn1cc(C2=C(c3ccc(Cl)cc3Cl)C(=O)NC2=O)c2ccccc21, the inhibition is reported as inconclusive: 14%. For Cn1nc(C(=O)N2CCNC(=O)C2CCO)c2ccccc21 (stereo not drawn), the inhibition was inconclusive: 10%. In the case of O=C1OC(Nc2ccccc2Cl)c2ccccc21 (stereo not drawn), the inhibition is reported as “inactive”. N#Cc1ccc(Oc2ccc(C(=O)Nc3ccccc3)cc2)cc1 was tested, and the inhibition was “inactive”. For Nc1c(C(=O)c2ccc(Br)cc2)sc2nc(-c3ccccn3)ccc12, the inhibition was inconclusive: 22%. For CCCCSCC(O)CN1CCCCC1 (stereo not drawn), the inhibition was inconclusive: 21%. With CCc1ccc(C2CC(c3ccc(OC)cc3)n3ncnc3N2)cc1 (stereo not drawn) the inhibition was “inactive”. In the case of NS(=O)(=O)c1ccc(NC(=O)c2ccc([N+](=O)[O-])cc2)cc1, the inhibition is reported as inconclusive: 13%. For CCCOc1cc(C)c2c(c1C)C[C@H]([C@H](C)C(=O)O)CC2, the inhibition was “inactive”. In the case of COc1ccc(C2C(C(=O)NCc3cccnc3)c3cc(OC)c(OC)cc3C(=O)N2C)cc1 (stereo not drawn), the inhibition is reported as inconclusive: 13%. For Cc1ccc(N=Cc2c(Nc3cccc(Cl)c3)nc3c(C)cccn3c2=O)cc1, the inhibition was “inactive”. For CCOC(=O)c1nn(CCC(C)C)c2c1CN(C(=O)CCc1nc3ccccc3[nH]1)CC2, the inhibition was “inactive”. For CC(C)NC(=O)[C@@H]1C[C@H](N)CN1C(=O)CN1CCCCCC1=O, the inhibition was inconclusive: 10%. In the case of O=C(Nc1ccc(N2CCC(NC(c3ccccn3)C(F)(F)F)CC2)cc1)c1cnccn1 (stereo not drawn), the inhibition is reported as “inactive”. With CC(Sc1nc2c([nH]c3ccccc32)c(=O)n1C)c1ccccc1 (stereo not drawn) the inhibition was inconclusive: 14%. In the case of O=C(c1ccccc1[N+](=O)[O-])n1nnc2ccccc21, the inhibition is reported as inconclusive: 17%. For CN1CC2(CCN(C(=O)CCn3nnc4ccccc43)C2)OC1=O (stereo not drawn), the inhibition was inconclusive: 15%. In the case of Cn1nc([N+](=O)[O-])c(I)c1I, the inhibition is reported as inconclusive: 26%. With Cc1cnc(SCCN2CCOCC2)nc1C1CCCN(C(=O)c2csc3c2CCCC3)C1 (stereo not drawn) the inhibition was inconclusive: 11%. With CN1C[C@@H](NC(=O)CC(C)(C)CC(=O)O)C[C@H]1c1nc(-c2ccc(F)cc2)no1 the inhibition was active: 30%. With N#Cc1nc(-c2ccc(Cl)cc2)oc1NCc1ccco1 the inhibition was active: 35%. With COc1cc(OC)c(/C=C2/C(=O)Nc3ccccc32)c(OC)c1 the inhibition was “inactive”. CC1(C)CCCC2(C)C=C(C(=O)O)C(O)CC12 (stereo not drawn) was tested, and the inhibition was inconclusive: 22%. Cn1cccc1C(=O)N[C@H]1CCN2C(=O)c3ccccc3NC(=O)[C@@H]2C1 was tested, and the inhibition was inconclusive: 14%. In the case of CN(CCCc1cnn(C)c1)C(=O)c1cnn2ccn(C)c12, the inhibition is reported as inconclusive: 14%. For COc1ccccc1N=c1sc(C2=c3ccccc3=NC2=O)c(O)n1-c1ccccc1OC, the inhibition was active: 36%. For Cc1cccc(N2CCN(Cc3ccc([N+](=O)[O-])o3)CC2)c1C, the inhibition was inconclusive: 22%. In the case of CN(Cc1nc(-c2cccnc2)no1)C(=O)c1nc2ccccc2s1, the inhibition is reported as inconclusive: 11%. CC1CC(C)CN(C(=O)CSC2=Nc3ccccc3C3=NC(C(C)C)C(=O)N23)C1 (stereo not drawn) was tested, and the inhibition was inconclusive: 12%. With Cc1ccc(OC2(C(=O)N3CCC(N4CCCC4)CC3)CCNCC2)cc1 the inhibition was inconclusive: 13%. For CNc1ncc(-c2ccc(O)c(OC)c2)c(-c2ccc(C)cc2)n1, the inhibition was inconclusive: 13%. Cc1nc(C2CCNCC2)cc(N(C)CCc2noc(C(C)C)n2)n1 was tested, and the inhibition was “inactive”. For Cn1c(=O)c2c(nc(NC3CCCCC3)n2Cc2ccccc2F)n(C)c1=O, the inhibition was inconclusive: 15%. With CNC(=O)C1CCC(Cn2c(=O)c3sccc3n(CC(=O)Nc3cccc(C(C)=O)c3)c2=O)CC1 (stereo not drawn) the inhibition was “inactive”. With CC1(C)OC(=O)C(=CNc2cccc(C(=O)O)c2)C(=O)O1 the inhibition was active: 33%. With Cc1cc(C)n(C(C)Cn2cnc(-c3ccccc3)c2-c2nccn2C)n1 (stereo not drawn) the inhibition was “inactive”. In the case of Cc1ccc(C(=O)ON=C2C=CC(=NOC(=O)c3ccccc3Br)C=C2)cc1, the inhibition is reported as inconclusive: 26%. c1csc(CN2CCc3c([nH]c4ccccc34)C2)c1 was tested, and the inhibition was inconclusive: 14%. With O=C(Cn1c(=O)n(-c2ccc(F)cc2)c(=O)c2ccccc21)NCC1CCCO1 (stereo not drawn) the inhibition was “inactive”. In the case of Cc1ccccc1/C=C1/SC(=Nc2ccccc2)NC1=O, the inhibition is reported as inconclusive: 29%. With CCc1c(C(=O)N(C)CCn2ccnc2C)[nH]c2ccccc12 the inhibition was inconclusive: 11%. For COc1ccc(-c2ncnn2-c2sc3c(c2C#N)CCCC3)cc1OC, the inhibition was inconclusive: 19%. CN1C[C@@H](NC(=O)c2cnccn2)C[C@H]1c1nc(-c2ccncc2)no1 was tested, and the inhibition was inconclusive: 13%. In the case of CN(Cc1nc2ccc(Cl)cc2[nH]1)Cc1nc(Cc2cccc(C(F)(F)F)c2)no1, the inhibition is reported as inconclusive: 18%. With CC1(C)CC(=O)c2sc(NC(=O)c3cccc(Br)c3)nc2C1 the inhibition was inconclusive: 12%. For O=C(NCc1cccs1)c1ccc2c(c1)N(Cc1ccc(F)cc1)C(=O)CS2=O (stereo not drawn), the inhibition was “inactive”. With COc1ccc2cc3cc(C(=O)N4CCN(C)CC4)sc3nc2c1 the inhibition was “inactive”. In the case of Cc1ccc(Cl)cc1NC(=O)NCCc1nc2cccnc2n1C1CCCCC1, the inhibition is reported as inconclusive: 16%. For Cc1ccccc1NC(=O)c1ccc(-c2nnc(-c3ccccc3)o2)cc1, the inhibition was “inactive”. In the case of c1ccc(Cc2nc(CCc3cccnc3)n[nH]2)cc1, the inhibition is reported as “inactive”. In the case of Cn1c(=O)c2c(SCC(=O)N3CCCCCC3)nc(-c3ccco3)nc2n(C)c1=O, the inhibition is reported as inconclusive: 12%. For O=C(CSc1nnc2sc3ccccc3n12)Nc1ccc(Cl)cc1, the inhibition was inconclusive: 20%. In the case of Cc1[nH]c2ccccc2c1SCCNC(=O)c1cc2ccccc2oc1=O, the inhibition is reported as inconclusive: 15%. With O=C(c1cc2ccccc2cc1O)N1CCOCC1 the inhibition was inconclusive: 13%.
